The text below walks through data of article doi:10.1101/2024.12.05.626995 (bioRxiv, 2024).

The chains behind the UniProt entries cited, without tags or fusion partners. Residues count along the entry.
UniProt Q8LBP4, residues 57-462: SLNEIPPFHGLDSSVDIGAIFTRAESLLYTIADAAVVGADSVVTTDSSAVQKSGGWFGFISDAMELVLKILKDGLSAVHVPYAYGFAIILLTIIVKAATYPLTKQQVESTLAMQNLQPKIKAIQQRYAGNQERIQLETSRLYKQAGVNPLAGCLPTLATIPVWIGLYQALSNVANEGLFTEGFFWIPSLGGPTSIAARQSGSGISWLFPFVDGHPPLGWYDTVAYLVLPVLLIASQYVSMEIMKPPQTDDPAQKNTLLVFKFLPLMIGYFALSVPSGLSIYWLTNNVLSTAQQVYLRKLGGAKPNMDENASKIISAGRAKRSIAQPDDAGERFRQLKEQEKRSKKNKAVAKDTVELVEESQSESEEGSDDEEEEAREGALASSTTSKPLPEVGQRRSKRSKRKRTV
UniProt Q9FYL3, residues 46-499: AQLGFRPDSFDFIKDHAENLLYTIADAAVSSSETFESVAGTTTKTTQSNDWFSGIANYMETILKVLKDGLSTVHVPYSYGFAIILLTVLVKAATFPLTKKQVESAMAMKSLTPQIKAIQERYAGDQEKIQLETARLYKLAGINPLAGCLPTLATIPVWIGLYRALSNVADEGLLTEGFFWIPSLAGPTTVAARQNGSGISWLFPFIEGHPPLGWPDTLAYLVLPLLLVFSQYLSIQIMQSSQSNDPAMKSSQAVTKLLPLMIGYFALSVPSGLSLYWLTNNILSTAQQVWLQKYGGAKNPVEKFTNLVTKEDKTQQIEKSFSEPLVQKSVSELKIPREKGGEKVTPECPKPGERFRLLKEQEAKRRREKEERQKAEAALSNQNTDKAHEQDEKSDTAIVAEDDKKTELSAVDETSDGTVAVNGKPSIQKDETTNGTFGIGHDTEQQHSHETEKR

These are yes or no findings as the source states them, for the method shown. Some results given as binding are weak or reduced against the parent protein; the word gives no strength. Where a sequence is shown, tags or fusion partners need not be part of it.

Assay [1] has as its target Alb3-Cub (mature full-length Alb3 fused to the C-terminal half of ubiquitin) (Arabidopsis thaliana) (UniProt Q8LBP4). Kind of assay: two-hybrid.
The target of assay [2] is Alb4-Cub (mature full-length Alb4 fused to the C-terminal half of ubiquitin) (Arabidopsis thaliana) (UniProt Q9FYL3). In words: two-hybrid.

B1: NubG-Get3b (mature Get3b fused to a modified N-terminal half of ubiquitin) (protein, UniProt A1L4Y1 68-411)
chain: VASPTETISEFDEMVSGTKRKYYMLGGKGGVGKTSCAASLAVRFANNGHPTLVVSTDPAHSLSDSFAQDLTGGMLVPVEGPEAPLFALEINPEKAREEFRSASQMNGGTGVKDFMDGMGLGMLVEQLGELKLGELLDTPPPGLDEAIAISKVIQFLESPEYNMFTRIVFDTAPTGHTLRLLSLPDFLDASIGKILKLRQKITSATSAIKSVFGKEEKGPDAADKLEKLRERMVKVRELFRDTESTEFVIVTIPTVMAVSESSRLSASLKKESVPVKRLIVNQLLPPSSSDCKFCSIKRKDQMRALDMIREDSELSALTLMEAPLVDMEIRGVPALRFLGDIIWK
For B1, the binding result in assay [1] and in assay [2] was “binds” throughout.
